Reference: the supplement of paper PMC7238544
Structures can show the parent of a compound that is named as a salt. ± gives the standard deviation of the averaged measurements. This is one part of the list. The data scatter; read single values as rough.

Columns and labels:
hAMSC donor 1 [1] = assay: Hoechst total cell count ratio vs vehicle control; higher = more cells (less toxicity)
hAMSC donor 2 [2] = assay: as above
hAMSC donor 1 [3] = assay: transgenic luciferase activity (RLU/mg protein) fold change vs vehicle control (ratio); higher = more transgene expression
hAMSC donor 2 [4] = assay: as above
hAMSC donor 1 [5] = assay: transfection efficiency (EGFP+ cells / Hoechst count) fold change vs vehicle control (ratio); hAMSC are human adipose-derived mesenchymal stem cells given an EGFP-luciferase plasmid by lipofection; higher = enhanced transfection
hAMSC donor 2 [6] = assay: as above
[7] = priming compound concentration 0.2 µM
[8] = priming compound concentration 1.7 µM
[9] = priming compound concentration 13 µM

Row | Compound | Hoechst total cell count ratio (hAMSC donor 1 [1]; [7]) | Hoechst total cell count ratio (hAMSC donor 1 [1]; [8]) | Hoechst total cell count ratio (hAMSC donor 1 [1]; [9]) | Hoechst total cell count ratio (hAMSC donor 2 [2]; [7]) | Hoechst total cell count ratio (hAMSC donor 2 [2]; [8]) | Hoechst total cell count ratio (hAMSC donor 2 [2]; [9]) | transgenic luciferase activity (hAMSC donor 1 [3]; [7]) | transgenic luciferase activity (hAMSC donor 1 [3]; [8]) | transgenic luciferase activity (hAMSC donor 2 [4]; [8]) | transgenic luciferase activity (hAMSC donor 2 [4]; [9]) | transfection efficiency (hAMSC donor 1 [5]; [7]) | transfection efficiency (hAMSC donor 1 [5]; [8]) | transfection efficiency (hAMSC donor 1 [5]; [9]) | transfection efficiency (hAMSC donor 2 [6]; [7]) | transfection efficiency (hAMSC donor 2 [6]; [8]) | transfection efficiency (hAMSC donor 2 [6]; [9]) | transgenic luciferase activity (hAMSC donor 1 [3]; [9]) | transgenic luciferase activity (hAMSC donor 2 [4]; [7])
1 | CC(=O)OCC(=O)[C@@]1(O)CC[C@H]2[C@@H]3CCC4=CC(=O)CC[C@]4(C)[C@H]3C(=O)C[C@@]21C [Cortisone acetate] | 1.35 ± 0.093 | 1.59 ± 0.27 | 1.14 ± 0.22 | 1.19 ± 0.058 | 0.959 ± 0.043 | 0.791 ± 0.13 | 0.783 ± 0.54 | 0.778 ± 0.098 | 0.492 ± 0.08 | 0.389 ± 0.12 | 0.959 ± 0.28 | 1.19 ± 0.045 | 0.958 ± 0.19 | 0.833 ± 0.12 | 1.44 ± 0.23 | 1.37 ± 0.088 |  | 
2 | Cc1nnc(SCC2=C(C(=O)O)N3C(=O)[C@@H](NC(=O)Cn4cnnn4)[C@H]3SC2)s1 [Cefazolin sodium] | 1.15 ± 0.16 | 1.23 ± 0.071 | 1.05 ± 0.32 | 1.11 ± 0.049 | 0.852 ± 0.18 | 0.624 ± 0.27 | 0.661 ± 0.16 | 1.12 ± 0.56 | 0.454 ± 0.027 | 0.437 ± 0.16 | 0.937 ± 0.065 | 1.34 ± 0.2 | 1.19 ± 0.23 | 0.889 ± 0.11 | 1.39 ± 0.29 | 1.3 ± 0.68 |  | 
3 | CCCCC(=O)O[C@H]1CC[C@H]2[C@@H]3CCc4cc(O)ccc4[C@H]3CC[C@]12C [Estradiol valerate] | 1.2 ± 0.15 | 1.27 ± 0.23 | 1.13 ± 0.31 | 1.23 ± 0.035 | 0.808 ± 0.16 | 0.751 ± 0.058 | 0.885 ± 0.51 | 0.565 ± 0.19 | 0.799 ± 0.081 | 0.615 ± 0.092 | 1.32 ± 0.48 | 1.22 ± 0.3 | 0.938 ± 0.082 | 0.899 ± 0.063 | 1.27 ± 0.038 | 1.48 ± 0.34 |  | 
4 | O=C(c1ccc(OCCN2CCCCC2)cc1)c1c(-c2ccc(O)cc2)sc2cc(O)ccc12 [Raloxifene hydrochloride] | 1.46 ± 0.15 | 1.4 ± 0.098 | 1 ± 0.14 | 0.755 ± 0.37 | 0.882 ± 0.11 | 1.13 ± 0.12 |  | 0.521 ± 0.36 | 0.516 ± 0.03 | 0.235 ± 0.066 | 1.26 ± 0.27 | 0.887 ± 0.21 | 1.26 ± 0.26 | 1.12 ± 0.13 | 1.05 ± 0.38 | 0.634 ± 0.12 | 0.785 ± 0.48 | 
5 | CN1CCC(=C2c3ccccc3C=Cc3ccccc32)CC1 [Cyproheptadine hydrochloride] | 1.33 ± 0.074 | 0.52 ± 0.069 | 1.25 ± 0.16 | 0.73 ± 0.27 | 0.926 ± 0.12 | 1.37 ± 0.11 |  | 1.94 ± 3.1 | 0.649 ± 0.063 | 0.315 ± 0.085 | 1.13 ± 0.22 | 1.76 ± 0.15 | 1.19 ± 0.4 | 1.42 ± 0.16 | 1.23 ± 0.15 | 1.03 ± 0.064 | 0.597 ± 0.091 | 
6 | Cc1cccc(Nc2ccccc2C(=O)O)c1C [Mefenamic acid] | 1.35 ± 0.12 | 1.51 ± 0.19 | 1.14 ± 0.11 | 1.07 ± 0.15 | 0.602 ± 0.1 | 0.831 ± 0.13 | 0.5 ± 0.096 |  | 0.518 ± 0.27 |  | 1.26 ± 0.12 | 1.11 ± 0.15 | 1.2 ± 0.23 | 0.906 ± 0.14 | 1.85 ± 0.22 | 1.33 ± 0.25 | 6.95 ± 3.4 | 0.798 ± 0.32
7 | CCCCC(=O)O[C@]1(C(=O)CO)CC[C@H]2[C@@H]3CCC4=CC(=O)CC[C@]4(C)[C@H]3[C@@H](O)C[C@@]21C [Hydrocortisone 17-valerate] | 1.25 ± 0.091 | 1.44 ± 0.12 | 1.26 ± 0.23 | 1.14 ± 0.044 | 1.02 ± 0.12 | 1.01 ± 0.077 | 1.62 ± 0.53 | 3.89 ± 0.72 | 1.96 ± 0.14 | 1.45 ± 0.26 | 1.54 ± 0.41 | 1.49 ± 0.24 | 1.22 ± 0.18 | 1.19 ± 0.074 | 2.38 ± 0.19 | 1.66 ± 0.24 |  | 
8 | Cn1ccnc1S [Methimazole] | 1.19 ± 0.28 | 1.64 ± 0.17 | 1.31 ± 0.32 | 1.14 ± 0.025 | 0.827 ± 0.034 | 0.842 ± 0.22 | 0.473 ± 0.24 | 1.35 ± 0.15 | 0.649 ± 0.23 | 0.442 ± 0.085 | 1.01 ± 0.32 | 0.931 ± 0.15 | 0.984 ± 0.18 | 0.877 ± 0.032 | 1.3 ± 0.19 | 1.18 ± 0.11 |  | 
9 | C[C@@](Cc1ccc(O)c(O)c1)(NN)C(=O)O [Carbidopa] | 1.06 ± 0.11 | 1.19 ± 0.024 | 0.901 ± 0.2 | 0.773 ± 0.26 | 1.37 ± 0.065 | 1.31 ± 0.23 |  | 0.858 ± 0.48 | 0.534 ± 0.039 | 0.331 ± 0.007 | 1.15 ± 0.058 | 1.24 ± 0.35 | 1.88 ± 0.6 | 1.31 ± 0.17 | 1.03 ± 0.25 | 0.953 ± 0.088 | 1.02 ± 0.39 | 
10 | CC(C)(C#N)c1cc(Cn2cncn2)cc(C(C)(C)C#N)c1 [Anastrozole] | 1.46 ± 0.22 | 0.943 ± 0.16 | 1.07 ± 0.19 | 0.93 ± 0.2 | 1.51 ± 0.22 | 1.1 ± 0.29 |  | 0.876 ± 0.61 | 0.802 ± 0.16 | 0.384 ± 0.044 | 0.913 ± 0.2 | 1.2 ± 0.38 | 1.05 ± 0.3 | 1.03 ± 0.17 | 1.05 ± 0.13 | 1.1 ± 0.1 | 1.09 ± 0.23 | 
